# In PubChem BioAssay AID504834 (National Center for Advancing Translational Sciences (NCATS), 2011):
# The campaign covered roughly 320,000 compounds. About 22,000 (6.9%) were called active. The shares of active, inactive and inconclusive entries below differ from those in the screen. The call rests on the fitted dose curve; in most records, active means well fitted inhibition curve with a large enough effect; inconclusive means small, poorly fitted or top-dose-only effect, or another doubt; inactive means no such curve, though single readings can be large or run the other way. Where the call is inconclusive, the potency comes from a doubtful curve fit.
# Experiment: Primary qHTS for delayed death inhibitors of the malarial parasite plastid, 96 hour incubation
# Conditions: P. falciparum luciferase reporter growth; series mostly up to 28.7 µM
# Summary of the method: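 Two parasite generations (96 h, 37 C, 5% CO2) of compound exposure in infected erythrocytes (0.05% parasitemia, 2% hematocrit). Luciferase-reporter P. falciparum; decreased luminescence indicates inhibited growth, aimed at apicoplast-acting delayed death.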
# Potency means the concentration at half of the fitted maximal effect.
row,Compound,Potency
1,COc1ccccc1Oc1coc2c(CN(C)C)c(O)ccc2c1=O,inactive
2,COCCn1c(=O)[nH]c2cc(C(=O)NCCc3ccc(OC)c(OC)c3)ccc2c1=O,"inconclusive: 5.86 µM [inhibitor, partial curve, poor fit]"
3,CC(C)CN(CC(C)C)S(=O)(=O)N1CCC(C(=O)NC2CCCCCCC2)CC1,active: 11.7 µM
4,COc1ccc(CN2C(=O)C(CC(C)C)Nc3ncnc(N4CCN(c5ccccn5)CC4)c32)cc1 (stereo not drawn),"inconclusive: 11.7 µM [inhibitor, single point]"
5,CCCCN1C(=O)/C(=C2/Sc3ccc(Cl)cc3N2CC)SC1=S,"inconclusive: 10.4 µM [inhibitor, single point]"
6,Cc1nn(C)c(C)c1S(=O)(=O)N1CCC(C(=O)NC2CCCCCC2)CC1,active: 5.22 µM
7,COCC(=O)N(Cc1ccco1)c1nnc(C2CCOC2)s1 (stereo not drawn),"inconclusive: 18.5 µM [inhibitor, single point]"
8,O=C(NCCCN1CCOCC1)c1cc(-c2cccc(Br)c2)nc2ccccc12,"inconclusive: 8.28 µM [inhibitor, partial curve]"
9,Cc1ccc(NC(=O)c2ccc(S(=O)(=O)N3CCCCC3)cc2)nc1,"inconclusive: 18.5 µM [inhibitor, single point]"
10,CCC(C)[C@H](NC(=O)Nc1cccc(Cl)c1)C(=O)O (stereo partly drawn),"inconclusive: 11.7 µM [inhibitor, single point]"
11,O=C(CC1C=Cc2ccccc2N1C(=O)c1ccccc1)c1ccccc1 (stereo not drawn),active: 0.586 µM
12,CC(CC(=O)Nc1nc2ccccc2[nH]1)n1ccnc1 (stereo not drawn),"inconclusive: 18.5 µM [inhibitor, single point]"
13,Nc1cc(-c2ccc(Br)cc2)nn1S(=O)(=O)c1ccccc1,"inconclusive: 2.62 µM [inhibitor, partial curve]"
14,CCOC(=O)C1CCCN(C(=O)N2CCOCC2)C1 (stereo not drawn),"inconclusive: 0.294 µM [inhibitor, full curve, poor fit]"
15,O=C(Nc1ccc(Cl)c(Cl)c1)Nn1cnnc1,inactive
16,CC(C)N(CCNC(=O)c1oc(=O)c2ccccc2c1-c1ccccc1)Cc1ccco1,"inconclusive: 18.5 µM [inhibitor, single point]"
17,CC1CN(C(=O)c2cccs2)CCN1C(=O)c1cccs1 (stereo not drawn),inactive
18,CCOC(=O)c1c(CN2CCOCC2)n(-c2ccccc2)c2cc(Br)c(O)cc12,active: 1.85 µM
19,O=C1CC(N(CCc2ccccc2)C(=S)Nc2cc(Cl)ccc2Cl)C(=O)N1c1c(Cl)cccc1Cl (stereo not drawn),active: 10.4 µM
20,CCc1sc(/C=C(/C#N)C(N)=S)cc1[N+](=O)[O-],"inconclusive: 4.15 µM [inhibitor, single point]"
21,CCCCn1c(O)c(/C=N/N2CCCCC2c2cccnc2)c(=O)[nH]c1=S (stereo not drawn),"inconclusive: 18.5 µM [inhibitor, single point]"
22,CCOc1ccc(NC(=O)NCc2cccnc2)cc1,"inconclusive: 11.7 µM [inhibitor, single point]"
23,Cc1cnccc1CN(C)C(=O)CC1C(=O)NCCN1CC1CCCCC1 (stereo not drawn),"inconclusive: 18.5 µM [inhibitor, single point]"

# Entries listed so far that contain two or more sulfur atoms:
row,Compound,Potency
5,CCCCN1C(=O)/C(=C2/Sc3ccc(Cl)cc3N2CC)SC1=S,"inconclusive: 10.4 µM [inhibitor, single point]"
17,CC1CN(C(=O)c2cccs2)CCN1C(=O)c1cccs1 (stereo not drawn),inactive
20,CCc1sc(/C=C(/C#N)C(N)=S)cc1[N+](=O)[O-],"inconclusive: 4.15 µM [inhibitor, single point]"

# 3 entries from above, ordered by number of heavy atoms, falling:
row,Compound,Potency
9,Cc1ccc(NC(=O)c2ccc(S(=O)(=O)N3CCCCC3)cc2)nc1,"inconclusive: 18.5 µM [inhibitor, single point]"
13,Nc1cc(-c2ccc(Br)cc2)nn1S(=O)(=O)c1ccccc1,"inconclusive: 2.62 µM [inhibitor, partial curve]"
20,CCc1sc(/C=C(/C#N)C(N)=S)cc1[N+](=O)[O-],"inconclusive: 4.15 µM [inhibitor, single point]"

# Remaining list, next part:

row,Compound,Potency
1,COc1ccc(S(=O)(=O)N2CCCC2C(=O)Nc2nnc(-c3cccnc3)s2)cc1 (stereo not drawn),inactive
2,CCOC(=O)[C@H]1[C@H]2COc3cc(OC)ccc3[C@@H]2N2C(=O)N(c3ccc(Cl)cc3)C(=O)[C@@]12C,active: 5.22 µM
3,CN(C)/C(=N\S(=O)(=O)c1ccccc1)c1ccc(F)cc1,"inconclusive: 13.1 µM [inhibitor, single point]"
4,CC(C)OCCCNC(=O)C1CC(=O)N(CCc2ccccc2)C1 (stereo not drawn),inactive
5,COc1cc(-c2nc3ccccn3c2/N=C/c2cccc(F)c2)ccc1O,"inconclusive: 18.5 µM [inhibitor, single point]"
6,NS(=O)(=O)c1ccc(NCc2c(F)cccc2Cl)cc1,inactive
7,CCOc1ccccc1NC(=O)NC1CC2CCCC(C1)N2Cc1nnnn1CCc1ccccc1 (stereo not drawn),"inconclusive: 4.65 µM [inhibitor, partial curve, poor fit]"
8,COc1ccc(-c2cc(-c3ccc(Cl)cc3)c(C#N)c(SCC(=O)O)n2)cc1,"inconclusive: 11.7 µM [inhibitor, single point]"
9,Cc1cccc(OCCN2C(=O)C(=O)c3cc(C)ccc32)c1,"inconclusive: 11.7 µM [inhibitor, single point]"
10,COc1ccc(N2CCN(C(=O)c3ccc4c(Cl)c5c(nc4c3)CCCC5)CC2)cc1,"inconclusive: 10.4 µM [inhibitor, partial curve, poor fit]"
11,C/C(CC(=O)Nc1ccc([N+](=O)[O-])cc1)=N/NC(=O)C1CC12CCC2 (stereo not drawn),inactive
12,C/C(CC(=O)Nc1cccc(Cl)c1)=N\NC(=O)Cc1ccc(Cl)cc1,"inconclusive: 13.1 µM [inhibitor, partial curve]"
13,N#Cc1ccc(C23CC4(C2)[C@H](CN(CC2CCCCC2)[C@@H]4c2ccccc2)C3c2ccccc2)cc1 (stereo partly drawn),active: 11.7 µM
14,N#CCC(=O)Nc1ccc(C(=O)OCC(=O)NC(=O)Cc2ccccc2)cc1,inactive
15,O=C1C=C(c2ccccc2)CC(c2cccs2)C1n1cnc([N+](=O)[O-])c1 (stereo not drawn),"inconclusive: 11.7 µM [inhibitor, partial curve]"
16,CCOC(=O)C1(CCCc2ccccc2)CCN(CCCn2cccn2)CC1,active: 10.4 µM
17,COc1ccc(NC(=O)CSc2n[nH]c(=O)n2Cc2ccccc2)cc1Cl,"inconclusive: 18.5 µM [inhibitor, single point]"
18,CC(C)Cn1c(N)c(C(=O)COC(=O)c2cc(-c3ccccc3)nc3ccccc23)c(=O)n(C)c1=O,active: 11.7 µM
19,COc1cc(C(=O)NCc2nnc(SCC(=O)Nc3cccc(C(F)(F)F)c3)o2)cc(OC)c1OC,"inconclusive: 14.7 µM [inhibitor, partial curve]"
20,Cc1cc(N2C(=O)CC(Cc3ccc(Cl)cc3)C2=O)no1 (stereo not drawn),"inconclusive: 0.465 µM [inhibitor, partial curve, poor fit]"
21,Cc1ccc(CNC(=O)C2CCN(S(=O)(=O)c3ccc4c(c3)CC(C)N4C(=O)C3CCC3)CC2)o1 (stereo not drawn),"inconclusive: 18.5 µM [inhibitor, single point]"
22,CN(CC1COc2ccccc2O1)C(=S)Nc1ccccc1F (stereo not drawn),inactive
23,COc1ccc(NC(=O)CN(C)CC(=O)Nc2ccc(N3CCOCC3)cc2)c([N+](=O)[O-])c1,"inconclusive: 9.28 µM [inhibitor, partial curve]"

row,Compound,Potency
1,COc1ccc(/C=C/C2=CC(C)(C)NC(=S)N2)cc1,active: 9.28 µM
2,COc1ccccc1NS(=O)(=O)c1cc(NC(=O)/C=C/c2cccs2)ccc1N1CCOCC1,"inconclusive: 13.1 µM [inhibitor, partial curve, poor fit]"
3,CC(=O)c1cc(F)c(N2CCN(C(=O)Cc3ccccc3)CC2)cc1C,inactive
4,CCN(CC)C(=O)COc1c(-c2ccco2)oc2ccccc2c1=O,"inconclusive: 18.5 µM [inhibitor, single point]"
5,COCCn1c(SCC(=O)NNC(=O)c2cc(Cl)ccc2OC)nnc1-c1ccncc1,"inconclusive: 2.08 µM [inhibitor, single point]"
6,COc1ccc(CC(=O)N(Cc2ccccc2)c2ccc(C)cc2)cc1S(=O)(=O)N1CCOCC1,active: 13.1 µM
7,CN(c1ccc(C(=O)Nc2ccc3c(c2)n(C)c(=O)n3C)cc1)S(C)(=O)=O,"inconclusive: 6.57 µM [inhibitor, partial curve, poor fit]"
8,Nc1cc(-c2ccccc2)nn1S(=O)(=O)c1ccc(Br)cc1,"inconclusive: 5.22 µM [inhibitor, partial curve]"
9,CC1CN(S(=O)(=O)c2cccc(C(=O)NCC3COc4ccccc4O3)c2)CC(C)O1 (stereo not drawn),"inconclusive: 11.7 µM [inhibitor, partial curve, poor fit]"
10,COc1cc(OC)cc(C(=O)NNS(=O)(=O)c2ccc(F)cc2)c1,"inconclusive: 3.7 µM [inhibitor, partial curve]"
11,CCCCCCNC(=O)n1cc(F)c(=O)[nH]c1=O,active: 2.13 µM
12,Clc1ccc(Br)cc1-c1nc(-c2ccncc2)no1,inactive
13,COc1ccccc1/C=C\C(=O)NCC(=O)N/N=C/c1ccc(O)cc1O,inactive
14,CCN(CC)C(=O)Cn1cc(S(=O)(=O)CC(=O)Nc2cc(OC)ccc2OC)c2ccccc21,"inconclusive: 18.5 µM [inhibitor, single point]"
15,Clc1ccc(N2CCN(Cc3ccc(Br)o3)CC2)cc1,"inconclusive: 1.85 µM [inhibitor, partial curve, poor fit]"
16,O=C(NC12CC3CC(CC(C3)C1)C2)N1CCN(c2nc(-c3ccccc3)cs2)CC1,"inconclusive: 18.5 µM [inhibitor, single point]"
17,COC(CN(C(=O)CCl)C(C(=O)NC1CCCC(C)C1C)c1ccc(C)cc1)OC (stereo not drawn),"inconclusive: 11.7 µM [inhibitor, single point]"
18,Cc1ccc(NC(=O)Cc2nnc(SCC(=O)NC3CCCC3)n2C)cc1C,inactive
19,COc1ccc2nc(SCc3ccccc3)nc(C)c2c1,"inconclusive: 9.28 µM [inhibitor, single point]"
20,N/C(=N\OC(=O)CC1CCCCC1)c1cccnc1,"inconclusive: 0.415 µM [inhibitor, full curve, poor fit]"
21,O=C(CSc1nc2cc(S(=O)(=O)N3CCOCC3)ccc2o1)NC1CCCc2ccccc21 (stereo not drawn),"inconclusive: 18.5 µM [inhibitor, single point]"
22,S=C(NCc1ccco1)N1CCN(C/C=C/c2ccccc2)CC1,inactive
